Source: patent US20120039810, “APTAMER-CONTAINING COMPOSITIONS AND METHODS FOR TARGETING E-SELECTIN” (published 2012)
Results from cells or extracts need not show a direct contact. For some assays here: For at least one entry, the source does not settle the construct or the ends of the probe. For some assays here: The comparison behind a weaker result is the experiment's own reference, which may not be listed here.

The chains behind the UniProt entries cited, without tags or fusion partners. Residues count along the entry.
UniProt P16581, 22-610: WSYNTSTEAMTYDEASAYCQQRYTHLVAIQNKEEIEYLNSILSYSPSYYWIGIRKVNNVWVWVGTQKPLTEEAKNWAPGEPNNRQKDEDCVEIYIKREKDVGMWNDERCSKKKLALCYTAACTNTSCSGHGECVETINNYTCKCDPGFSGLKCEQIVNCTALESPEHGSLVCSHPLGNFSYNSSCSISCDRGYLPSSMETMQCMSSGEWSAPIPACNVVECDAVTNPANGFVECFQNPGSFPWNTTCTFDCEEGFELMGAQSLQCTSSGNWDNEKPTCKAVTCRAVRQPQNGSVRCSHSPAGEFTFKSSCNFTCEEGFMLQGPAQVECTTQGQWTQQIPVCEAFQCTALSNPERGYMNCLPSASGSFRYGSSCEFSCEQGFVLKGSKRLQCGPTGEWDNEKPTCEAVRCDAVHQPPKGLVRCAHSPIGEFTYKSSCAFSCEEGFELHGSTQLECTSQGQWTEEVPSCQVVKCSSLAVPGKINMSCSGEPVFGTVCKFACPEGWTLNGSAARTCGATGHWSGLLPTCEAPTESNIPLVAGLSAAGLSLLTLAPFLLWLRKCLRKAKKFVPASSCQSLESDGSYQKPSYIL
UniProt Q00690, 22-612: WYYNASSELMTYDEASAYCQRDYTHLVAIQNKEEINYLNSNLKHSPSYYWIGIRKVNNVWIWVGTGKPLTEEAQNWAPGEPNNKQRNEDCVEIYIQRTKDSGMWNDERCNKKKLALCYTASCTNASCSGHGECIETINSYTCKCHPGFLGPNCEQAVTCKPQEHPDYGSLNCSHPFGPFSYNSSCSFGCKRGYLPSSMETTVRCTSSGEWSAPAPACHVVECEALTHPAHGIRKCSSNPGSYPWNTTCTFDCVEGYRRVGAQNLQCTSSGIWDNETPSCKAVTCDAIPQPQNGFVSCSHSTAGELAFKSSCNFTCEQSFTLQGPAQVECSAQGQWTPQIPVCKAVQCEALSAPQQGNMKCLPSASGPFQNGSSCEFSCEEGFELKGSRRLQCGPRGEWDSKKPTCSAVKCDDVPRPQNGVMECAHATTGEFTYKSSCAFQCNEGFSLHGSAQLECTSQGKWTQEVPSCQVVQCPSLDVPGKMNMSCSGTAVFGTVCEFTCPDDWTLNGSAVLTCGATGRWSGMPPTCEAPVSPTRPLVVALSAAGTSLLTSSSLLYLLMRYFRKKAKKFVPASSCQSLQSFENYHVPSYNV

Key:
[1] = biological target: E-selectin on ES-Endo cells (Tet-on HMVEC) (UniProt P16581); test: binding assay; settings: 37 C, protein on the cell surface, label: Cy3, single-stranded DNA
[2] = biological target: E-selectin on 4T1 tumor vasculature endothelium (UniProt Q00690); test: binding assay; settings: 5'-monothiophosphate (Rp) on all dA except in primer-binding region; in vivo accumulation on 4T1 tumor vasculature after i.v. injection; blocked by anti-E-selectin antibody pretreatment; protein on the cell surface; label: Cy3; single-stranded DNA; variant of ESTA-1 (TA-1)
[3] = 5'-monothiophosphate on dA, flanked by primer regions, 100 nM, minor or weak doxycycline-dependent binding with high background

| Sequence | binding result [1, 3] | binding result ([1]; 5'-monothiophosphate (Rp) on all dA except in primer-binding region, fluorescence microscopy, doxycycline-dependent, detectable at 50 nM, blocked by anti-E-selectin antibody H18/7 but not normal IgG, variant of ESTA-1 (TA-1)) | binding result [2] |
| --- | --- | --- | --- |
| CCTGCACCTCCACCCTACACACTAAACGCG [representative thioaptamer random region SEQ 45] | binds more weakly |  |  |
| CGCTCGGATCGATAAGCTTCGATCCCACTCTCCCGTTCACTTCTCCTCACGTCACGGATCCTCTAGAGCACTG [ESTA-1 Cy3-labeled] |  | binds | binds |
| TCCTCTCCTCTCGTGTATCCACTCCACACA [representative thioaptamer random region SEQ 46] | binds more weakly |  |  |
| GCCTTCTCCTGGACTCCACTTCACTCCGTG [representative thioaptamer random region SEQ 44] | binds more weakly |  |  |
| CCCTCCCCTATACCACTGTCAACTTCCACT [representative thioaptamer random region SEQ 41] | binds more weakly |  |  |
| GCCCCACACCTCCAACACACGCGCCTCCGC [representative thioaptamer random region SEQ 48] | binds more weakly |  |  |
| TCCTTCCCAGTTCCATCTTATCCTCCTCGG [representative thioaptamer random region SEQ 49] | binds more weakly |  |  |
| GCCCTACACTCACCCTCACCCAGACACACC [representative thioaptamer random region SEQ 47] | binds more weakly |  |  |
| TTCCCGCACTCCTCCATCCTCCCTTCACAC [representative thioaptamer random region SEQ 40] | binds more weakly |  |  |
| TCCCCGTCCTTTCTCTTCCCTTCCCCTCGG [representative thioaptamer random region SEQ 39] | binds more weakly |  |  |
| ACCCTACTACACCATCTCACCTCAACCCTC [representative thioaptamer random region SEQ 42] | binds more weakly |  |  |
| TCTCCCTCCTTCTCCTCTCCTCGCTTCACC [representative thioaptamer random region SEQ 38] | binds more weakly |  |  |
| CCTCCACTCCTCCCTTCACTCTACCCACCC [representative thioaptamer random region SEQ 43] | binds more weakly |  |  |
